Laboratory results published in article doi:10.1101/2024.04.11.589026 (bioRxiv, 2024).

The chains behind the UniProt entries cited, without tags or fusion partners.
UniProt Q8TD16: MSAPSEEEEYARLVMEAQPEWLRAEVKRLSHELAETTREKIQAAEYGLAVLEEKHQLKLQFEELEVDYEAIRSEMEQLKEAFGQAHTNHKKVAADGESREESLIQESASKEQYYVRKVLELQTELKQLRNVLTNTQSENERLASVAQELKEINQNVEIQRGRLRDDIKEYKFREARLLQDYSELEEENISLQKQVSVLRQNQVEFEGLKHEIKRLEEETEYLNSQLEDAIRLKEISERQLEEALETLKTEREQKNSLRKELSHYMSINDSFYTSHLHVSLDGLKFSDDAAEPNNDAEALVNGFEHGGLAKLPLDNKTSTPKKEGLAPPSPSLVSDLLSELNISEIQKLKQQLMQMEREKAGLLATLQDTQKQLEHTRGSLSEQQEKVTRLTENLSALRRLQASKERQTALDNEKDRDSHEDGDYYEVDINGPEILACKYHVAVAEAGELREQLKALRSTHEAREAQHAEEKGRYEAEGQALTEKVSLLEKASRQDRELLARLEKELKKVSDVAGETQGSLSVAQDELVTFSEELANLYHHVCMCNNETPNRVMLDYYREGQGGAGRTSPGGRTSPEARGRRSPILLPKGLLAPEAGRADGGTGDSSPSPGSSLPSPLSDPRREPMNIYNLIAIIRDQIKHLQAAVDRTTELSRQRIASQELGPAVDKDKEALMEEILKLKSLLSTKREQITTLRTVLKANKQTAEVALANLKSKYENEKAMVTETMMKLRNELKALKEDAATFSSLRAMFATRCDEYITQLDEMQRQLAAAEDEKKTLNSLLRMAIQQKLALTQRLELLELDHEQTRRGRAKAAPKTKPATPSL

B1: BICD1 (endogenous, HeLa) (protein, UniProt Q96G01 1-975)
chain: MAAEEVLQTVDHYKTEIERLTKELTETTHEKIQAAEYGLVVLEEKLTLKQQYDELEAEYDSLKQELEQLKEAFGQSFSIHRKVAEDGETREETLLQESASKEAYYLGKILEMQNELKQSRAVVTNVQAENERLTAVVQDLKENNEMVELQRIRMKDEIREYKFREARLLQDYTELEEENITLQKLVSTLKQNQVEYEGLKHEIKRFEEETVLLNSQLEDAIRLKEIAEHQLEEALETLKNEREQKNNLRKELSQYISLNDNHISISVDGLKFAEDGSEPNNDDKMNGHIHGPLVKLNGDYRTPTLRKGESLNPVSDLFSELNISEIQKLKQQLMQVEREKAILLANLQESQTQLEHTKGALTEQHERVHRLTEHVNAMRGLQSSKELKAELDGEKGRDSGEEAHDYEVDINGLEILECKYRVAVTEVIDLKAEIKALKEKYNKSVENYTDEKAKYESKIQMYDEQVTSLEKTTKESGEKMAHMEKELQKMTSIANENHSTLNTAQDELVTFSEELAQLYHHVCLCNNETPNRVMLDYYRQSRVTRSGSLKGPDDPRGLLSPRLARRGVSSPVETRTSSEPVAKESTEASKEPSPTKTPTISPVITAPPSSPVLDTSDIRKEPMNIYNLNAIIRDQIKHLQKAVDRSLQLSRQRAAARELAPMIDKDKEALMEEILKLKSLLSTKREQIATLRAVLKANKQTAEVALANLKNKYENEKAMVTETMTKLRNELKALKEDAATFSSLRAMFATRCDEYVTQLDEMQRQLAAAEDEKKTLNTLLRMAIQQKLALTQRLEDLEFDHEQSRRSKGKLGKSKIGSPKVSGEASVTVPTIDTYLLHSQGPQTPNIRVSSGTQRKRQFSPSLCDQSRPRTSGASYLQNLLRVPPDPTSTESFLLKGPPSMSEFIQGHRLSKEKRLTVAPPDCQQPAASVPPQCSQLAGRQDCPTVSPDTALPEEQPHSSSQCAPLHCLSKPPHP

Target: T1, GFP-ScaC (passenger domain of ScaC, residues 33-223, fused to a N-terminal eGFP tag) (Orientia tsutsugamushi) (UniProt I6Z768)
T1 sequence: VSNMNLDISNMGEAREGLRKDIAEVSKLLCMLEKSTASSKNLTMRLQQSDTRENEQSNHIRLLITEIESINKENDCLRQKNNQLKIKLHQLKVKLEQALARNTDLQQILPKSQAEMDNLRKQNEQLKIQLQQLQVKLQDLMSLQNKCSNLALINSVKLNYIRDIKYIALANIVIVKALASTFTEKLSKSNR
Assay: affinity purification with mass spectrometry

Molecule	binding
BICD2 (endogenous, HeLa) (from UniProt Q8TD16 1-824)	binds
B1	binds

Results are given in words; binding and its absence hold for the method and conditions named. Binding seen in cells or lysates may run through a third protein. Here binding means that the protein was enriched with, or labelled near, the bait; the list need not be complete. Tags and fused reporters may be left off the sequences shown.
